Experimental data from patent US10041935B2, “Identification of olfactory receptors sensitive to different odorants” (New York University, priority 2013, dated 2018).

Tested on: cultured rat hippocampal neurons
Assay: Retention of fluorescence after 4% paraformaldehyde fixation of neurons
Type: cell-based
Settings: 10 mM EGTA in washes

For “CaMPARI v1: isolated polypeptide comprising CaM, EosFP, and M13, SEQ ID NO: 1; Calcium-Modulated Photoactivatable Ratiometric Integrator”, the “green fluorescence signal retained relative to images before fixation” value was 40% and the “red fluorescence signal retained relative to images before fixation” value was 60%.
